# In paper PMC11443414 (RSC Advances, 2024):
# Target: T1, urease subunit gamma (UreA) (Staphylococcus aureus, UniProt Q6GEE6)
# T1 sequence (Q6GEE6 1-100): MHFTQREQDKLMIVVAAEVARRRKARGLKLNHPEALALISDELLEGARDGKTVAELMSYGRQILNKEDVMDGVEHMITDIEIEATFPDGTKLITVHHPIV
# Type: binding
smiles,measurement,value
"Nc1ccc(S(N)(=O)=O)cc1 [compound 4, Sulfanilamide]","STD-NMR (individual, group epitope mapping); DSF Tm shift",all the aromatic protons showed interactions with protein in STD difference spectrum
